# Source: PubChem BioAssay AID1347076 (National Center for Advancing Translational Sciences (NCATS), 2019)
# Out of some 400,000 compounds screened, about 13,000 (3.2%) were called active. Inconclusive means that the source gave no clear call. Such entries were picked first, then a sample of the others. Calls come from the whole dose curve; as a rule, active = well fitted cell-killing curve with a large enough effect; inconclusive = small, poorly fitted or top-dose-only effect, or effect the other way; inactive = flat fitted curve, though single readings scatter. Potencies beside an inconclusive call are fits to weak or partial responses and may not hold up.
# Test: qHTS assay for MDR1-selective chemotherapeutics: Primary screen using the drug-selected MDR subline cells KB-V1; note: nearly all actives have a fitted effect of over 60% in size
# Conditions: KB-V1 MDR cells viability, CellTiter-Glo, 72 h; series mostly up to 46.1 µM
# Summary of the method: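 Cells of the MDR subline KB-V1 are plated, dosed with compound at multiple concentrations, and incubated 72 h at 37 degrees C; CellTiter-Glo is then added and luminescence read after 10 min.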
# Potency is the fitted concentration of half-maximal effect.
row,SMILES,Potency
1,O=C(N1CCOCC1)N1CCCC(c2nc(-c3cccs3)no2)C1 (stereo unspecified),active: 14.6 µM
2,CCn1cc(C(=O)NCCc2ccccc2)c(=O)c2cc(S(=O)(=O)N3CCCCCC3)ccc21,inactive
3,CC1CC(C)CN(C(=O)c2ccc(C#N)cc2)C1 (stereo unspecified),"inconclusive: 32.6 µM [cytotoxic, partial curve, poor fit]"
4,Cc1cccc(Nc2nc3c(s2)CCCC3)c1,"inconclusive: 20.6 µM [cytotoxic, partial curve, poor fit]"
5,O=C1CC(=C2c3ccccc3-c3ccccc32)C(=O)N1CCN1CCN(c2ccccc2)CC1,"inconclusive: 5.8 µM [cytotoxic, full curve]"
6,Cc1nn(C)c(C)c1S(=O)(=O)N(CC(=O)NCCc1ccc(Cl)cc1)c1ccc(C(C)C)cc1,inactive
7,COc1ccc(OC)c(CNC(=O)c2c(C)oc3ncn(CC(C)C)c(=O)c23)c1,inactive
8,Cc1cc(NC2CCCCC2)nc(-c2ccccc2O)n1,"inconclusive: 29.1 µM [cytotoxic, single point]"
9,COc1ccc(NC(=O)c2c(NCc3cccc(F)c3)sc3c2CCC3)c(OC)c1,inactive
10,CN1CCN(c2ccccc2NC(=O)Cc2ccc(Cl)cc2)CC1,"inconclusive: 25.9 µM [cytotoxic, partial curve, poor fit]"
11,N#CC1(Cc2ccccc2Cl)c2ccccc2C=CN1C(=O)c1ccccc1 (stereo unspecified),active: 20.6 µM
12,CCC(C)[C@H](NS(=O)(=O)c1ccc(C)cc1)C(=O)N1CCC(C(=O)N2CCC(C(=O)OC)CC2)CC1 (stereo partly specified),inactive
13,Cc1cc(C(=O)NC2CCCc3c2cnn3-c2ccc(C(C)(C)C)cc2)n[nH]1 (stereo unspecified),"inconclusive: 18.4 µM [cytotoxic, single point]"
14,Cc1noc(C)c1CSc1nnc2scc(-c3ccc(Cl)cc3)n12,"inconclusive: 4.61 µM [cytotoxic, partial curve, poor fit]"
15,O=C(CC1C[C@H](C(=O)N2CCOCC2)[C@@]2(CCC3CCCC3)c3[nH]c4ccccc4c3CCN2C1=O)NCc1cccc(C(F)(F)F)c1 (stereo partly specified),inactive
16,COC(=O)[C@]1(CC(C)C)N[C@H](c2ccc(-c3ccccc3)cc2)[C@@H]2C(=O)N(C)C(=O)[C@@H]21,inactive
17,CCOC(=O)c1cc2c(C)n(-c3ccc(C)cc3)c(C)c2ccc1=O,active: 5.8 µM
18,COc1ccc(-c2nsc(SCC(=O)NCC3CCCO3)n2)cc1 (stereo unspecified),"inconclusive: 32.6 µM [cytotoxic, single point]"
19,COc1ccc(C(C(=O)NC2CCCCC2)N(C(=O)c2sc(C)nc2C)c2ccccc2C)cc1 (stereo unspecified),"inconclusive: 23.1 µM [cytotoxic, single point]"
20,Cc1ccc(-c2nc3ccc(C)cn3c2Cc2ccccn2)cc1,"inconclusive: 9.2 µM [cytotoxic, partial curve]"
21,COc1cc(Cl)c(C)cc1NC(=O)CN1CCN(C(=O)c2cccs2)CC1,inactive
22,COc1ccc(C)cc1NC(=O)C(=O)NCCc1sc(-c2cccc(C)c2)nc1C,"inconclusive: 3.66 µM [cytotoxic, partial curve, poor fit]"
23,COC(=O)CCC(=O)OC1(C)C(=O)C2=CN(Cc3ccccc3)C(c3ccc(OC)cc3)=CC2=C(Br)C1=O (stereo unspecified),inactive
24,C/C(=N\NC(=O)c1nnn(-c2nonc2N)c1-c1ccc(Cl)c(Cl)c1)c1ccncc1,inactive

row,SMILES,Potency
1,O=C(Cn1ncc2c([nH]c3ccccc32)c1=O)NCC1CCN(Cc2ccccc2F)CC1,"inconclusive: 13 µM [rising, partial curve, poor fit]"
2,NC(=O)c1ncn([C@@H]2O[C@H](CNS(=O)(=O)c3cc4ccccc4s3)[C@@H](O)[C@H]2O)n1,inactive
3,CCc1csc(CCNC(=O)C2CCC(=O)N(CCc3cccc(F)c3)C2)n1 (stereo unspecified),"inconclusive: 25.9 µM [cytotoxic, single point]"
4,CC(=O)Nc1ccc(SCC(=O)c2cc(C)n(-c3ccccc3F)c2C)cc1,"inconclusive: 13 µM [cytotoxic, partial curve]"
5,Cc1sc(-n2c(C)cc(/C=N/n3cnnc3)c2C)c(C#N)c1C,"inconclusive: 32.6 µM [cytotoxic, partial curve, poor fit]"
6,COc1ccc(-c2nc(N)nc(C)c2-c2ccc(Cl)cc2)c(O)c1,"inconclusive: 0.231 µM [cytotoxic, full curve]"
7,O=C(Nc1nc(-c2ccccn2)cs1)c1ncc(Cl)c(Cl)c1Cl,"inconclusive: 16.4 µM [cytotoxic, partial curve]"
8,Cc1cc(C)c(S(=O)(=O)Nc2cccc3nsnc23)c(C)c1,active: 14.6 µM
9,COc1ccc(S(=O)(=O)N2CCCCC2)cc1NC(=O)CN(Cc1ccco1)Cc1ccco1,"inconclusive: 29.1 µM [cytotoxic, single point]"
10,COc1ccc2cc(Br)ccc2c1CC(=O)NC1CC(C)(C)NC(C)(C)C1,"inconclusive: 7.31 µM [cytotoxic, partial curve]"
11,Cc1ccccc1C(=O)Nc1ccc(S(=O)(=O)N2CCC(c3nc4ccccc4s3)CC2)cc1,inactive
12,COc1ccc(-c2cc(C(=O)N3CCN(C(c4ccccc4)c4ccccc4)CC3)no2)cc1,active: 20.6 µM
13,Cc1ccc(S(=O)(=O)Nc2cccc(C(=O)NCC(c3ccc(F)cc3)N3CCOCC3)c2)cc1 (stereo unspecified),"inconclusive: 16.4 µM [rising, partial curve, poor fit]"
14,Cc1cc(C)c(NC(=O)NC(=O)c2cccc(F)c2)c(C)n1,"inconclusive: 16.4 µM [cytotoxic, single point]"
15,COc1ccc(O)c(/C=N\NC(=O)CCn2nnc3ccccc32)c1,inactive
16,COC(=O)CSc1[nH]c2ccccc2c1[N+](=O)[O-],inactive
17,CCc1nc2ccc(C(=O)NC3CCN(Cc4ccccc4)CC3)cn2c1N(C)Cc1cc2ccccc2s1,active: 10.3 µM
18,COc1ccccc1N1CCN(C(=O)CSc2nc3ccccc3[nH]2)CC1,inactive
19,COc1ccc(C2=NN(CCC(=O)NCc3ccc4c(c3)OCO4)C(=O)CC2)cc1,"inconclusive: 14.6 µM [cytotoxic, partial curve]"
20,CCOC(=O)c1cccc(NC(=O)CCn2c(=O)oc3ccccc32)c1,"inconclusive: 10.3 µM [cytotoxic, partial curve]"
21,CSc1c(SCc2ccccc2)cnn(-c2ccccc2)c1=O,"inconclusive: 16.4 µM [cytotoxic, single point]"
22,N/C(=N/OCC(=O)Nc1cccc2ccccc12)c1nonc1N,active: 14.6 µM
23,O=C(c1ccc(Br)cc1)N1CCC2(CC1)NCCc1[nH]cnc12,"inconclusive: 9.2 µM [rising, partial curve, poor fit]"
24,Cc1cccc(NC(=S)N2CCN(C(=O)c3ccco3)CC2)c1C,"inconclusive: 11.6 µM [rising, partial curve]"

# Taken from above.
# For Potency, CCOC(=O)c1cccc(NC(=O)CCn2c(=O)oc3ccccc32)c1 has inconclusive: 10.3 µM [cytotoxic, partial curve]
# For Potency, Cc1cc(C)c(S(=O)(=O)Nc2cccc3nsnc23)c(C)c1 has active: 14.6 µM

# Later entries:

row,SMILES,Potency
1,O=C(Nc1cccc(C(=O)O)c1)/C(=C\c1ccccc1)NC(=O)c1ccc(Br)o1,"inconclusive: 23.1 µM [rising, single point]"
2,COc1ccccc1CNc1nc(NCc2cccc(OC)c2OC)c2sccc2n1,active: 20.6 µM
3,CCC1CN(C(=O)N2CCC(C(=O)NCc3ccccc3OC)CC2)c2ccccc2O1 (stereo unspecified),inactive
4,O=C1CCC[C@@H]2Cc3nc4ccccc4cc3[C@@H]3CCN1[C@H]23,"inconclusive: 29.1 µM [cytotoxic, partial curve, poor fit]"
5,Cc1ccc(NC(=S)NCc2ccc3c(c2)cc(C)n3C)c(C)c1,"inconclusive: 29.1 µM [cytotoxic, single point]"
6,COc1ccc(C(O)c2nc(-c3cc(F)cc(F)c3)cs2)cc1 (stereo unspecified),inactive
7,COc1ccc(CNC(=O)Cn2c(=O)oc3ccccc32)cc1OC,inactive
8,Cc1ccc(-c2cc(C(F)F)n3ncc(C(=O)N4CCc5ccccc54)c3n2)cc1,active: 5.8 µM
9,CC(=NNC(=S)N1CC2CCC(CC2)C1)c1cccc(C)n1,"inconclusive: 0.184 µM [cytotoxic, full curve, poor fit]"
10,CCC1CCc2nc3sc(C(=O)Nc4cccc(F)c4)c(N)c3cc2C1 (stereo unspecified),inactive
11,O=C(Nc1ccc(S(=O)(=O)Nc2ncccn2)cc1)C(F)(F)F,"inconclusive: 18.4 µM [rising, partial curve, poor fit]"
12,COCCNC(=S)Nc1ccc2nc(N3CCCC3)cc(C)c2c1,active: 16.4 µM
13,CCOC(=O)c1c(C)[nH]c(C)c1S(=O)(=O)NCC(=O)Nc1cccc(SC)c1,inactive
14,O=C(CSc1nnc(-c2ccccc2)n1-c1ccc(Cl)cc1)N/N=C/c1ccco1,active: 16.4 µM
15,CC(C)CC1C(=O)N(Cc2cn(CCC3OCCCO3)nn2)CCS(=O)(=O)N1Cc1ccc(-c2ccccc2)cc1 (stereo unspecified),inactive
16,COc1ccc(N(Cc2cc3cccc(C)c3[nH]c2=O)S(C)(=O)=O)cc1,inactive
17,CCOC(=O)c1c(CN2CCN(CC#N)CC2)n(C)c2cc(Br)c(OC)cc12,inactive
18,Cc1ccc(Cl)cc1N1CCN(C(=O)c2sc3nc4n(c(=O)c3c2C)CCC4)CC1,inactive
19,CN(C)CCNC(=O)c1ccc2nc(Cc3ccccc3)oc2c1,inactive
20,CN1CCC(=NNC(=O)CN(c2ccc([N+](=O)[O-])cc2)S(=O)(=O)c2ccccc2)CC1,"inconclusive: 29.1 µM [rising, single point]"
21,CN(CCO)C(=O)C1CCN(c2ncc(C(F)(F)F)cc2Cl)CC1,"inconclusive: 18.4 µM [cytotoxic, single point]"
22,CCn1c(Oc2ccccc2C)nc2c1c(=O)n(C)c(=O)n2C,"inconclusive: 20.6 µM [cytotoxic, partial curve, poor fit]"
23,CCOc1cc(NC(=S)NCC2CCCO2)c(OCC)cc1NC(=O)c1ccccc1 (stereo unspecified),"inconclusive: 22.4 µM [cytotoxic, single point]"

# Two compounds picked at random from the list so far, as already listed:
row,SMILES,Potency
1,O=C(N1CCOCC1)N1CCCC(c2nc(-c3cccs3)no2)C1 (stereo unspecified),active: 14.6 µM
15,COc1ccc(O)c(/C=N\NC(=O)CCn2nnc3ccccc32)c1,inactive
